PubChem BioAssay AID652259 – Drosophila RNAi Screening Center | 2013
In all, the deposit lists about 22,000 reagents; below is an unselected part of those with a known target gene and a result. Over the whole deposit, 233 (1.1%) are marked active. 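Light values are raw, unnormalised plate reads; the ratio scores behind the reporter calls were not deposited.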 The numbers tell different reagents against one gene apart. A plus sign joins genes that one reagent is predicted to hit. No sequences are given here. Not given: the amount of reagent, the time to read-out, the dose of the treatment.

Screen: 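Identify new Wingless signalling regulators in fly cells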 (primary screen)
System: Drosophila clone 8 imaginal disc epithelial cells
Knock-down reagent: long dsRNA against Drosophila genes
Treatment: pathway stimulated by co-transfected Wingless expression plasmid
Read-out: 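Dual luciferase reads per well after Wingless plasmid stimulation: reporter firefly light and Renilla control light; activity is firefly divided by Renilla, a ratio not deposited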
Scale: firefly reporter light: higher = more Wg reporter light, before normalisation; Renilla control light: higher = more transfected or surviving cells
Rule for the call: 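Strong candidates differ from their plate mean by at least two out of four per-plate statistical tests; weak candidates meet just one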
Meaning of the calls: active = candidate regulator (raises or lowers reporter); inactive = not a candidate

CG17266 #1
- firefly reporter light, replicate 1: 3332
- firefly reporter light, replicate 2: 11569
- Renilla control light, replicate 1: 1120
- Renilla control light, replicate 2: 4311
- Call: inactive

CG17266 #2
- firefly reporter light, replicate 1: 5.51e5
- firefly reporter light, replicate 2: 5.79e5
- Renilla control light, replicate 1: 3.00e5
- Renilla control light, replicate 2: 3.02e5
- Call: inactive

CG11279
- firefly reporter light, replicate 1: 8069
- Renilla control light, replicate 1: 2886
- Call: inactive

CG4686
- firefly reporter light, replicate 1: 22844
- Renilla control light, replicate 1: 5604
- Call: inactive

Mur18B
- firefly reporter light, replicate 1: 2013
- firefly reporter light, replicate 2: 7368
- Renilla control light, replicate 1: 729
- Renilla control light, replicate 2: 2448
- Call: inactive

Gapdh1
- firefly reporter light, replicate 1: 2496
- firefly reporter light, replicate 2: 5861
- Renilla control light, replicate 1: 163
- Renilla control light, replicate 2: 2610
- Call: inactive

Next part; the last 2 above are carried over.
Mur18B
- firefly reporter light, replicate 1: 2013
- firefly reporter light, replicate 2: 7368
- Renilla control light, replicate 1: 729
- Renilla control light, replicate 2: 2448
- Call: inactive

Gapdh1
- firefly reporter light, replicate 1: 2496
- firefly reporter light, replicate 2: 5861
- Renilla control light, replicate 1: 163
- Renilla control light, replicate 2: 2610
- Call: inactive

Sirt4
- firefly reporter light, replicate 1: 18611
- Renilla control light, replicate 1: 7435
- Call: inactive

CG31562 (retired record) #1
- firefly reporter light, replicate 1: 14217
- Renilla control light, replicate 1: 4507
- Call: inactive

CG31562 (retired record) #2
- firefly reporter light, replicate 1: 17971
- Renilla control light, replicate 1: 3833
- Call: inactive

CG43666 + CG43667 + CG43668 #1
- firefly reporter light, replicate 1: 25303
- Renilla control light, replicate 1: 12317
- Call: inactive

CG43666 + CG43667 + CG43668 #2
- firefly reporter light, replicate 1: 3072
- firefly reporter light, replicate 2: 6364
- Renilla control light, replicate 1: 1195
- Renilla control light, replicate 2: 2764
- Call: inactive

Polr2A
- firefly reporter light, replicate 1: 2386
- firefly reporter light, replicate 2: 9856
- Renilla control light, replicate 1: 544
- Renilla control light, replicate 2: 2219
- Call: inactive
